Results taken from the supplement of paper PMC10735217.
The list shows a part of the results. Single values are uncertain here, since repeats match poorly.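 The human kidney-derived cells carry a stably integrated construct of eight TEAD-binding elements driving luciferase, read by luminescence in a drug-repurposing library screen. A compound counts as a hit when its signal is more than five robust Z scores above the plate mean.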

Tested on: HEK293A TEAD-LUC reporter
Assay: TEAD-luciferase reporter activity (YAP activation), robust Z score vs plate; higher = stronger YAP/TEAD activation
Settings: 24 h

In the case of COc1ccc(O)c(C(C)(C)C)c1, the TEAD-luciferase reporter activity (compound concentration: 200 nM) is reported as active: 8.71, the TEAD-luciferase reporter activity (compound concentration: 2 uM) is reported as inactive: -0.357 and the TEAD-luciferase reporter activity (compound concentration: 10 uM) is reported as inactive: -0.811.

For C=C(C)[C@@H]1CCC(C)=C[C@H]1c1c(O)cc(CCCCC)cc1O [Cannabidiol], the TEAD-luciferase reporter activity (compound concentration: 200 nM) was inactive: 4.38, the TEAD-luciferase reporter activity (compound concentration: 2 uM) was inactive: -0.603 and the TEAD-luciferase reporter activity (compound concentration: 10 uM) was inactive: 2.35.

In the case of CC(C)c1ccc(NC(=O)Oc2ccc3c(c2)[C@]2(C)CCN[C@@H]2N3)cc1, the TEAD-luciferase reporter activity (compound concentration: 200 nM) is reported as inactive: -1.02, the TEAD-luciferase reporter activity (compound concentration: 2 uM) is reported as inactive: -0.756 and the TEAD-luciferase reporter activity (compound concentration: 10 uM) is reported as inactive: 1.06.

CC(C)Cc1noc(C2CC3CCC2N3)n1 (configuration not stated) was tested, and the TEAD-luciferase reporter activity (compound concentration: 200 nM) was inactive: -0.798, the TEAD-luciferase reporter activity (compound concentration: 2 uM) was inactive: -0.848 and the TEAD-luciferase reporter activity (compound concentration: 10 uM) was inactive: -0.0598.

With Cc1nc(Cl)c(Cl)n1CCCCN1CC=C(c2cccc(C(F)(F)F)c2)CC1 the TEAD-luciferase reporter activity (compound concentration: 200 nM) was inactive: -1.02, the TEAD-luciferase reporter activity (compound concentration: 2 uM) was inactive: -0.719 and the TEAD-luciferase reporter activity (compound concentration: 10 uM) was inactive: 2.51.

In the case of CNC(C)Cc1ccccc1OC (configuration not stated), the TEAD-luciferase reporter activity (compound concentration: 200 nM) is reported as inactive: -2.31, the TEAD-luciferase reporter activity (compound concentration: 2 uM) is reported as inactive: 0.328 and the TEAD-luciferase reporter activity (compound concentration: 10 uM) is reported as inactive: -1.61.

In the case of C[C@]1(O)CC[C@H]2[C@@H]3CC[C@@]45O[C@]4(C)C(O)=C(C#N)C[C@]5(C)[C@H]3CC[C@@]21C [epostane], the TEAD-luciferase reporter activity (compound concentration: 200 nM) is reported as inactive: -1.25, the TEAD-luciferase reporter activity (compound concentration: 2 uM) is reported as inactive: -0.43 and the TEAD-luciferase reporter activity (compound concentration: 10 uM) is reported as inactive: -0.512.

With CO[C@H]1C[C@H](O[C@H]2CC[C@@]3(C)[C@H](CC[C@@H]4[C@@H]3CC[C@]3(C)[C@@H](C5=CC(=O)OC5)[C@@H](OC(C)=O)C[C@]43O)C2)O[C@@H](C)[C@@H]1O [Oleandrin] the TEAD-luciferase reporter activity (compound concentration: 200 nM) was active: 6.18, the TEAD-luciferase reporter activity (compound concentration: 2 uM) was inactive: -2.08 and the TEAD-luciferase reporter activity (compound concentration: 10 uM) was inactive: 4.09.

In the case of N#Cc1ccc(N2CCCC2C(O)C(F)(F)F)cc1C(F)(F)F (configuration not stated), the TEAD-luciferase reporter activity (compound concentration: 200 nM) is reported as inactive: 2.43, the TEAD-luciferase reporter activity (compound concentration: 2 uM) is reported as inactive: -1.18 and the TEAD-luciferase reporter activity (compound concentration: 10 uM) is reported as inactive: -0.0863.

With CCCCCCCC(C)c1cc(OC(=O)CCCN(CC)CC)c2c(c1)OC(C)(C)C1=C2CC(C)CC1 (configuration not stated) the TEAD-luciferase reporter activity (compound concentration: 200 nM) was inactive: -2.06, the TEAD-luciferase reporter activity (compound concentration: 2 uM) was inactive: -1.33 and the TEAD-luciferase reporter activity (compound concentration: 10 uM) was inactive: 2.53.

With O[C@H]1[C@H](O)[C@@H](O)CN2CC[C@H](O)[C@H]12 the TEAD-luciferase reporter activity (compound concentration: 200 nM) was inactive: 2.93 and the TEAD-luciferase reporter activity (compound concentration: 10 uM) was inactive: -0.0312.

For O[C@H]1[C@H](O)[C@@H](O)CN2CC[C@H](O)[C@H]12 [Castanospermine], the TEAD-luciferase reporter activity (compound concentration: 2 uM) was inactive: -0.87.

In the case of c1ccc2c(c1)Nc1ccccc1S2, the TEAD-luciferase reporter activity (compound concentration: 200 nM) is reported as inactive: -0.799 and the TEAD-luciferase reporter activity (compound concentration: 10 uM) is reported as inactive: -0.181.

In the case of c1ccc2c(c1)Nc1ccccc1S2 [Phenothiazine], the TEAD-luciferase reporter activity (compound concentration: 2 uM) is reported as inactive: -0.256.

For COC1=CCC2[C@H]3Cc4ccc(OC)c5c4[C@@]2(CCN3C)[C@H]1O5 (some centres not stated) [6-O-Methylcodeine, derivative of], the TEAD-luciferase reporter activity (compound concentration: 200 nM) was inactive: -0.316, the TEAD-luciferase reporter activity (compound concentration: 2 uM) was inactive: -0.68 and the TEAD-luciferase reporter activity (compound concentration: 10 uM) was inactive: -0.401.

In the case of CN(C)C(=O)Oc1cccc([N+](C)(C)C)c1 [neostigmine methylsulfate, Flamel Technologies], the TEAD-luciferase reporter activity (compound concentration: 200 nM) is reported as inactive: -0.496, the TEAD-luciferase reporter activity (compound concentration: 2 uM) is reported as inactive: -1.16 and the TEAD-luciferase reporter activity (compound concentration: 10 uM) is reported as inactive: -1.22.
